# Results deposited as PubChem BioAssay AID1259405 (NCATS, 2018)
# Test: 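Silenced genes that increase secreted GFP made by CHO cells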 (primary screen)
# Cells: Chinese hamster CHO-K1 ovary cells with stable secreted eGFP expression
# Reagent: single siRNA against mouse genes, 0.8 pmol siRNA per well (2 µl of 400 nM stock)
# Timing: 3 days
# Detection: 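Per-well intracellular GFP measured by laser scanning cytometry, plus viability from ATP luminescence, each relative to plate median of non-targeting control wells, in %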
# Reading the numbers: GFP, % of control: higher = more GFP per well, higher productivity; viability (ATP), % of control: higher = more viable cells (more ATP)
# Hit rule: 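a knock-down is called active if GFP reaches 120% or more of non-targeting control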
# In all, the deposit lists about 50,000 reagents; shown is a random part of them. In the full data, about 4,000 (8%) got an active call. 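Mouse siRNA library applied to hamster cells; one well for each siRNA.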 Unmarked entries are inactive. Reagents against one gene are numbered here. Reagent sequences are not shown.
gene,siRNA no.,"GFP, % of control","viability (ATP), % of control"
Papss2 (GeneID 23972),1,79.8,99.3
Papss2 (GeneID 23972),2,82.6,50.2
Papss2 (GeneID 23972),3,75,81
Phaf1 (GeneID 234678),1,99.2,115
Phaf1 (GeneID 234678),2,82.2,86.4
Phaf1 (GeneID 234678),3,121 (active),82.9
Gnaq (GeneID 14682),1,120 (active),105
Gnaq (GeneID 14682),2,117,105
Gnaq (GeneID 14682),3,56.1,24.6
Slc7a7 (GeneID 20540),1,79.2,52.6
Slc7a7 (GeneID 20540),2,78.1,61.4
Slc7a7 (GeneID 20540),3,96.5,87
Hpgds (GeneID 54486),1,82.1,100
Hpgds (GeneID 54486),2,72.4,53.7
Hpgds (GeneID 54486),3,78.2,88.7
G2e3 (GeneID 217558),1,63.4,68.2
G2e3 (GeneID 217558),2,56.6,45.8
G2e3 (GeneID 217558),3,90.3,91
Acoxl (GeneID 74121),1,106,48.3
Acoxl (GeneID 74121),2,82.3,66.3
Acoxl (GeneID 74121),3,47,64.3
Sema4b (GeneID 20352),1,54.6,58.5
Sema4b (GeneID 20352),2,136 (active),109
Sema4b (GeneID 20352),3,99.2,112
Stox2 (GeneID 71069),1,80.4,81.3
Stox2 (GeneID 71069),2,99,89.5
Stox2 (GeneID 71069),3,79.7,102
Morf4l1 (GeneID 21761),1,68.5,63.5
Morf4l1 (GeneID 21761),2,82,76.5
Morf4l1 (GeneID 21761),3,36.1,55.9
Gtf2h4 (GeneID 14885),1,56.5,52.9
Gtf2h4 (GeneID 14885),2,24.7,28.9
Gtf2h4 (GeneID 14885),3,87.8,79.8
Taf6 (GeneID 21343),1,36.1,32.9
Taf6 (GeneID 21343),2,72.3,70.4
Taf6 (GeneID 21343),3,65,87.4
Eda2r (GeneID 245527),1,82.1,114
Eda2r (GeneID 245527),2,73.6,66.9
Idh3a (GeneID 67834),1,48.1,58.7
Idh3a (GeneID 67834),2,77.6,57.9
Idh3a (GeneID 67834),3,87.3,105
C1d (GeneID 57316),1,90.8,81.5
C1d (GeneID 57316),2,102,85.3
C1d (GeneID 57316),3,74.1,97.3
Slc44a3 (GeneID 213603),1,91.3,43.9
Slc44a3 (GeneID 213603),2,158 (active),80
Slc44a3 (GeneID 213603),3,69.8,43.2
Maob (GeneID 109731),1,59.6,72.6
Maob (GeneID 109731),2,61.1,71.6
Maob (GeneID 109731),3,64.8,53.3
Osbpl8 (GeneID 237542),1,76.2,65.9
Osbpl8 (GeneID 237542),2,63.1,72.7
Osbpl8 (GeneID 237542),3,78.6,85.1
Pgcka1 (GeneID 76261),1,99.8,95.2
Pgcka1 (GeneID 76261),2,136 (active),82.6
Pgcka1 (GeneID 76261),3,85.4,71.5
Abca2 (GeneID 11305),1,103,114
Abca2 (GeneID 11305),2,122 (active),106
Abca2 (GeneID 11305),3,106,123
Cobll1 (GeneID 319876),1,69.2,78.8
Cobll1 (GeneID 319876),2,111,76.3
Cobll1 (GeneID 319876),3,89.9,100
Htr7 (GeneID 15566),1,120 (active),109
Htr7 (GeneID 15566),2,79.8,70.3
Htr7 (GeneID 15566),3,115,76
Cdh12 (GeneID 215654),1,94.8,83.3
Cdh12 (GeneID 215654),2,80.4,84.7
Lyrm2 (GeneID 108755),1,100,82.9
Lyrm2 (GeneID 108755),2,58.5,80.9
Lyrm2 (GeneID 108755),3,70.7,51.7
Stag2 (GeneID 20843),1,121 (active),103
Stag2 (GeneID 20843),2,83.2,64.3
Stag2 (GeneID 20843),3,62.3,57.7
Magee2 (GeneID 272790),1,89.3,88
Magee2 (GeneID 272790),2,80.9,85.9
Magee2 (GeneID 272790),3,61.4,62
Cplx2 (GeneID 12890),1,50.4,73.3
Cplx2 (GeneID 12890),2,33,46.9
Cplx2 (GeneID 12890),3,113,106
Acer3 (GeneID 66190),1,63,58.7
Acer3 (GeneID 66190),2,82.7,54.5
Acer3 (GeneID 66190),3,69.3,40.3
Ptprr (GeneID 19279),1,186 (active),120
Ptprr (GeneID 19279),2,152 (active),108
Ptprr (GeneID 19279),3,75.4,57.5
